No constants are given. Whether binding was seen depends on the method and setting. In cells and extracts the contact can be indirect. Some binding calls cover weakened binding; strength is not graded here. Where a sequence is shown, tags or fusion partners need not be part of it.
Tests used:
Assay in all cases: co-IP; 50 ng recombinant IGFBP6-His added to 1 mg HCC cell lysate; PHB2-MYC immunoprecipitated, IGFBP6 detected by western blot; NET buffer, protein-A Sepharose, 4 °C over 12 h; only the binder purified
[1] = target: exo-PHB2 Thr288Ala (MYC-tagged) (UniProt Q99623)
[2] = target: exo-PHB2 (MYC-tagged PHB2, wild-type sequence) (UniProt Q99623)
[3] = target: exo-PHB2 Ser291Ala (MYC-tagged) (UniProt Q99623)

Sequences of proteins named here, by UniProt entry; tags and fusion partners are left off. A change or cut given only in a name is not applied to a line headed by its entry. A line that says so, or that is headed by a name, gives the form on record, which may keep a tag or linker.
UniProt Q99623: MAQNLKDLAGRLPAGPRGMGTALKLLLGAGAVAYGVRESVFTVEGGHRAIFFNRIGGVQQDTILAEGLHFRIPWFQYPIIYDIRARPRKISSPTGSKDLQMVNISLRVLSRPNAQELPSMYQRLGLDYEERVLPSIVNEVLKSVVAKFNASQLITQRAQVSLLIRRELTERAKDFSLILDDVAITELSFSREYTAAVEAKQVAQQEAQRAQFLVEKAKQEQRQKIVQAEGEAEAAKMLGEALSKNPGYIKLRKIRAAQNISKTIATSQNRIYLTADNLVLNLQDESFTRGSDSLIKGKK
exo-PHB2 Thr288Ala (MYC-tagged) (Q99623, form named): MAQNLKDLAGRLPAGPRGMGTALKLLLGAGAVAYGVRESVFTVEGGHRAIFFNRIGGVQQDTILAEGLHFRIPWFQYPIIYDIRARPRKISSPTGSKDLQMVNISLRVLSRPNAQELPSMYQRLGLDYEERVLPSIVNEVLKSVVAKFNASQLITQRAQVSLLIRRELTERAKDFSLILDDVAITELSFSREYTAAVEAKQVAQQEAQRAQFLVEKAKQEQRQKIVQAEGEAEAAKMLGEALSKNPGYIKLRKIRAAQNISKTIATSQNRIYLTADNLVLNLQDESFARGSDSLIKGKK
exo-PHB2 Ser291Ala (MYC-tagged) (Q99623, form named): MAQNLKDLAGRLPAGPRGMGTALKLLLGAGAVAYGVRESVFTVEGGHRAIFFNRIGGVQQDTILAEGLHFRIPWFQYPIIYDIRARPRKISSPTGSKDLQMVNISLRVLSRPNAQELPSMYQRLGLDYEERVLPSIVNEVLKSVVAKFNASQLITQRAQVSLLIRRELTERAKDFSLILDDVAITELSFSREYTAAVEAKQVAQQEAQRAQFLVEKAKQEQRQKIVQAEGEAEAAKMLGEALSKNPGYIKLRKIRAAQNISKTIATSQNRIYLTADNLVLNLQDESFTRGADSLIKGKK

binding [1]: binds
binding [2]: binds
binding [3]: binds
B1: recombinant IGFBP6 with His-tag (protein, UniProt P24592 28-240)
chain: RCPGCGQGVQAGCPGGCVEEEDGGSPAEGCAEAEGCLRREGQECGVYTPNCAPGLQCHPPKDDEAPLRALLLGRGRCLPARAPAVAEENPKESKPQAGTARPQDVNRRDQQRNPGTSTTPSQPNSAGVQDTEMGPCRRHLDSVLQQLQTEVYRGAQTLYVPNCDHRGFYRKRQCRSSQGQRRGPCWCVDRMGKSLPGSPDGNGSSSCPTGSSG
